These results are taken from PMC8643633.

Amino acid sequences for entries named in this document (tags omitted).
UniProt Q9H165: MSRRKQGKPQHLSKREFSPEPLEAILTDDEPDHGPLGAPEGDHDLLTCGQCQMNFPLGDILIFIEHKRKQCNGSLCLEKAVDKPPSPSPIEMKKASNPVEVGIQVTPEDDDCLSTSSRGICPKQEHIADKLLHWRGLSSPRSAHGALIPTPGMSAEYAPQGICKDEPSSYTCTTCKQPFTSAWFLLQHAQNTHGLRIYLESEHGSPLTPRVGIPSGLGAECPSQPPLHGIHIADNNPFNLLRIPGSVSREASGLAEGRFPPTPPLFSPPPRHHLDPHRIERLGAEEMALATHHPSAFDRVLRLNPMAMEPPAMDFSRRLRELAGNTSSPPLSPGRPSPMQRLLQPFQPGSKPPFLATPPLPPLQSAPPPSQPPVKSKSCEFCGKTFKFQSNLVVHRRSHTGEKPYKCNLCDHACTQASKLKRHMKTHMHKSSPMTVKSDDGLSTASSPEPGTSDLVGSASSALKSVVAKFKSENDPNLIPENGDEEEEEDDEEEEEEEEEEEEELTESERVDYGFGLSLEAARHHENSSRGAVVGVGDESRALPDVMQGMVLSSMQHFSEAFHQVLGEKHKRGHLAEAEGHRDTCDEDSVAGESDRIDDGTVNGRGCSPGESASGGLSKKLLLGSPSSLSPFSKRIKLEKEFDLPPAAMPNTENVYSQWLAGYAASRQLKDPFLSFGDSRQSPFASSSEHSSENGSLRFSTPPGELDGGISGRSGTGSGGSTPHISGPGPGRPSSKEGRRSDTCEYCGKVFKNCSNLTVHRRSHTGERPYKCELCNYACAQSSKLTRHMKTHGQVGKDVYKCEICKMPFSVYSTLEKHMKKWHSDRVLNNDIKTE
UniProt Q92922: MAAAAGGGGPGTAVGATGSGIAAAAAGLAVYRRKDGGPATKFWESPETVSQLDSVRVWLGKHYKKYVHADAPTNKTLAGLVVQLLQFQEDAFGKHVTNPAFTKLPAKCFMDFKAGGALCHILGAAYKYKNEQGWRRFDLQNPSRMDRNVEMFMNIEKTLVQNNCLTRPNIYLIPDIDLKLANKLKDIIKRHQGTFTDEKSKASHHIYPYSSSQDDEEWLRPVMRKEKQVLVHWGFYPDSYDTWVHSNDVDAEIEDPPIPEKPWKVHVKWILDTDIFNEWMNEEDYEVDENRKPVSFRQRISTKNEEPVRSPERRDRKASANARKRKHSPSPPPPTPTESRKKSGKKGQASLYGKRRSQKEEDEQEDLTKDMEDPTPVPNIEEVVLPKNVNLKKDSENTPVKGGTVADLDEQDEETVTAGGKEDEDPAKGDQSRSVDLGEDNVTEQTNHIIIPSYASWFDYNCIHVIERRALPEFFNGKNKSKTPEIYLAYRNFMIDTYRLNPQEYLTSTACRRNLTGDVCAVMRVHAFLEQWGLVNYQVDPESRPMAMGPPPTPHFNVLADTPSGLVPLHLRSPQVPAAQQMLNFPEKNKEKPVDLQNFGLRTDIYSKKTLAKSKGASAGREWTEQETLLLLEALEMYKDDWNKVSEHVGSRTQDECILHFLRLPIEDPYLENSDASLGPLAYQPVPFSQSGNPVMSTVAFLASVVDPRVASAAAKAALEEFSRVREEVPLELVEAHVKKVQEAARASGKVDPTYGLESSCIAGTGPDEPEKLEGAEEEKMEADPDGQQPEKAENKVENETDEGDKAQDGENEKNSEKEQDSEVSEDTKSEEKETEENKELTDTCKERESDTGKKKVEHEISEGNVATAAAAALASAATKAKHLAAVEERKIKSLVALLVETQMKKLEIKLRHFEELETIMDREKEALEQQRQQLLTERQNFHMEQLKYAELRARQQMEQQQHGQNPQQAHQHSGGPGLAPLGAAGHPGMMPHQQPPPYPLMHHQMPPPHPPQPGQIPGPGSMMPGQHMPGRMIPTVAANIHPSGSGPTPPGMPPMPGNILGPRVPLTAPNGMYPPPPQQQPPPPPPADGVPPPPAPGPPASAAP
UniProt Q86U86: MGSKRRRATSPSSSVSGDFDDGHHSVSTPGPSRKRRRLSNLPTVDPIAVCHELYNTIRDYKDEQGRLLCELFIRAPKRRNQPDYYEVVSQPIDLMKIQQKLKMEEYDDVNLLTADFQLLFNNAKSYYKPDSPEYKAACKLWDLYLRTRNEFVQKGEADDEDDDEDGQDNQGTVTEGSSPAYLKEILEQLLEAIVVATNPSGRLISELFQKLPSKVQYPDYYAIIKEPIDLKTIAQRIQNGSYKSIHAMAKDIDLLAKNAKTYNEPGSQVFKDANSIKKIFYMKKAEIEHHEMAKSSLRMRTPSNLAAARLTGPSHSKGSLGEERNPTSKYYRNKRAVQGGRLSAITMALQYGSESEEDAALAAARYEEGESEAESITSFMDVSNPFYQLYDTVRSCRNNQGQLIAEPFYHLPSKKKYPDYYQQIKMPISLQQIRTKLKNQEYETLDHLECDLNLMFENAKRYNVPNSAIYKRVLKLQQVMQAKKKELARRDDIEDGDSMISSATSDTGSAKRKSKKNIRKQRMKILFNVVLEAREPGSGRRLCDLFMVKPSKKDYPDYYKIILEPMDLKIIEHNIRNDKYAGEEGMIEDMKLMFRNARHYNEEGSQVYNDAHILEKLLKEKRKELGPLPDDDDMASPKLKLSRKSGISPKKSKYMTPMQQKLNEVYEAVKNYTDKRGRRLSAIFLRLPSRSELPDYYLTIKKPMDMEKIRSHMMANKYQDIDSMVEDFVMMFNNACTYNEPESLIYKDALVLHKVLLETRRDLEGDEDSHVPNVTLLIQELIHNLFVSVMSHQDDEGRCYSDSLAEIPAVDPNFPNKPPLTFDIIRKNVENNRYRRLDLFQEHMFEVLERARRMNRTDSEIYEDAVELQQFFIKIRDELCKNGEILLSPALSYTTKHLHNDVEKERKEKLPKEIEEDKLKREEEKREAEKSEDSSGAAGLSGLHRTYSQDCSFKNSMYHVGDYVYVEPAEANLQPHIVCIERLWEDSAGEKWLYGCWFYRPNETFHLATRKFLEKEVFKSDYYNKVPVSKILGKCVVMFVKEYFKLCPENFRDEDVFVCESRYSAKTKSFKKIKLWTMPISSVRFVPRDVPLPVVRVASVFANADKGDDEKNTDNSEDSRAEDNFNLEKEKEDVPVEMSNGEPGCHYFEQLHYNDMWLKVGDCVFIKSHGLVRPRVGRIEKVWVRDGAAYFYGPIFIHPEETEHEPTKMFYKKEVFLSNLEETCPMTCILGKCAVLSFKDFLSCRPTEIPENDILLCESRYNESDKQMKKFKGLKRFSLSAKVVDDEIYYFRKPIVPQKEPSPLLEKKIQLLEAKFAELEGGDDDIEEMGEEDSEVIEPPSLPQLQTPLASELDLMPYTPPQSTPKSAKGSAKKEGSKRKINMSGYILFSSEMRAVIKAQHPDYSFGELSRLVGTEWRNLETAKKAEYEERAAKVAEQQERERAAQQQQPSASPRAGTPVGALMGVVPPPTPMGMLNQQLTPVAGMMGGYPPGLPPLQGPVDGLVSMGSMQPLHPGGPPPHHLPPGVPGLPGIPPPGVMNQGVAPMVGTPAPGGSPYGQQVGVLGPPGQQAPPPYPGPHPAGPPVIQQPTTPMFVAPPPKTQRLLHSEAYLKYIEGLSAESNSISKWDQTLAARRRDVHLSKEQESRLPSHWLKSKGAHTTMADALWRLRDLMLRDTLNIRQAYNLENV
UniProt Q9H8M2: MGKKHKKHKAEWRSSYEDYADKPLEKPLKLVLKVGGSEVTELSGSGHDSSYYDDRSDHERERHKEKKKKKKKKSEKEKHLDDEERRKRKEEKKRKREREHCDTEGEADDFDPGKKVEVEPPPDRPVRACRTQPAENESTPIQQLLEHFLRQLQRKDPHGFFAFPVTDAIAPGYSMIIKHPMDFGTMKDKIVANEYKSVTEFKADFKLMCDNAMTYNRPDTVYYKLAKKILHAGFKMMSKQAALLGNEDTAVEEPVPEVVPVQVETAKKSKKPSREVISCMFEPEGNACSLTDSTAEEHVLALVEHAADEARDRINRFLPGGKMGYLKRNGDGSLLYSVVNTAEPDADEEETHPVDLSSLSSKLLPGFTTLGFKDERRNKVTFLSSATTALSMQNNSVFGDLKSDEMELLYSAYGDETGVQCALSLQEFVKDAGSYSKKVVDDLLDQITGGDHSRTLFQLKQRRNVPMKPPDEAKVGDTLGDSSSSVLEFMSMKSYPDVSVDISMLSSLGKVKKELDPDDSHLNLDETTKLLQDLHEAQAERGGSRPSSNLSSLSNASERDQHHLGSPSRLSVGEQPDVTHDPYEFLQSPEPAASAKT

Results are given in words; binding and its absence hold for the method and conditions named. In cells and extracts the contact can be indirect. Some entries that bind do so weakly or less than the wild type.

Assay [1] has as its target B-cell lymphoma 11A (BCL11A) (human (endogenous in MDA-MB-468)) (UniProt Q9H165). The assay can be described thus: co-IP; immunoprecipitation with anti-BCL11A and anti-BAF155 antibodies after treatment with vehicle, JQ1, TP-064 and their combination; western blot of SWI/SNF subunits (Supplementary Figure S6I). Background: In western blotting, separated proteins are transferred to a membrane and probed.

Assay [2] deals with BAF155 (human (endogenous in MDA-MB-468)) (UniProt Q92922). Described as above.

As to BAF180 (from UniProt Q86U86 1-1689), the binding result in assay [1] and in assay [2] was “binds” in each case.

In the case of BRD9 (from UniProt Q9H8M2 1-597), the binding result in assay [1] and in assay [2] was “binds” in each case.
